Assay results taken from PubChem BioAssay (NCATS).
The shares of active, inactive and inconclusive entries below differ from those in the screen. A potency beside an inconclusive call is a rough fit, not a confirmed value. The source made the active and inactive calls. The call rests on the fitted dose curve; in most records, active means well fitted curve in the direction sought with a large enough effect; inconclusive means small, poorly fitted or top-dose-only effect, or another doubt; inactive means no such curve, though single readings can be large; an effect the other way counts as inactive or inconclusive.

Sequences of proteins named here, by UniProt entry; tags and fusion partners are left off. A change or cut given only in a name is not applied to a line headed by its entry.
UniProt Q9Y253: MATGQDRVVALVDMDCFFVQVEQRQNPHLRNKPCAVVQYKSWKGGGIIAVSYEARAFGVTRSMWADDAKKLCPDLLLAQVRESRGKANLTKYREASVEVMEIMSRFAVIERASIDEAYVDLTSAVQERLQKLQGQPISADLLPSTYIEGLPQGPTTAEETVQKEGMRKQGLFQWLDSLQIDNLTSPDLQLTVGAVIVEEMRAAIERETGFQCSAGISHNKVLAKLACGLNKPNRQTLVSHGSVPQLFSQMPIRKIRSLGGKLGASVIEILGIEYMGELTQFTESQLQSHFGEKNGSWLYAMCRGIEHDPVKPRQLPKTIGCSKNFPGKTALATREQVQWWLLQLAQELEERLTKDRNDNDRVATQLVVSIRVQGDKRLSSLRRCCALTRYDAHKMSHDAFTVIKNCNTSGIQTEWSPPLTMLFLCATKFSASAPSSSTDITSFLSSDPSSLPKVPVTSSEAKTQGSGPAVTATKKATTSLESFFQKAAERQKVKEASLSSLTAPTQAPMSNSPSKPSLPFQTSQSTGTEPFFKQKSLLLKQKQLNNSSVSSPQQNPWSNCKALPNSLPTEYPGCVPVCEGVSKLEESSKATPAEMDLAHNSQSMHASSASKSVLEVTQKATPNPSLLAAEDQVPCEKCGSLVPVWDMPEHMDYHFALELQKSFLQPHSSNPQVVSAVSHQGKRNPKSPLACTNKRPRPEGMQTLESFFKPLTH

Tested on: not listed separately
Test: qHTS for Inhibitors of WRN Helicase: Thiazole Orange DNA Binding Counterscreen (AID 720499);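 further: drop in dye fluorescence marks compound binding to DNA; nearly all actives have a fitted effect of over 60% in size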
Settings: thiazole orange DNA binding displacement, fluorescence
Outline: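 Counterscreen to remove nonspecific DNA binders from WRN helicase hits. Compounds were incubated 15 min at room temperature with 50 nM DNA and 100 nM ThO, then fluorescence was recorded (480 nm excitation, 530 nm emission).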
Potency means the concentration at half of the fitted maximal effect.

Structure (SMILES) | Potency
O=C(O)c1ccccc1NS(=O)(=O)c1ccc(NN=Cc2ccccc2F)c([N+](=O)[O-])c1 | inconclusive: 38.3 µM [inhibitor, single point]
O=c1cc2oc3cc(O)c(O)cc3c(-c3ccccc3[N+](=O)[O-])c-2cc1O | inconclusive: 21.5 µM [inhibitor, partial curve]
CCN(CC(=O)Nc1c(F)cccc1F)C(=O)/C=C/c1ccc2ccccc2n1 | inconclusive: 27.1 µM [inhibitor, partial curve]

Target: DNA polymerase eta (Homo sapiens) (UniProt Q9Y253)
Test: qHTS for Inhibitors of Polymerase Eta: Confirmatory Assay for Cherry-picked Compounds (AID 720502)
Settings: Pol eta primer extension, TAMRA/BHQ fluorescence, 10 min
Outline: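 Compounds are preincubated 15 min at room temperature with 10 nM human Pol eta, with buffer-only wells serving as negative control. Adding 50 nM final substrate starts the reaction, and TAMRA fluorescence is read over 10 min.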

Structure (SMILES) | Potency
O=C(O)C1Nc2c(Cl)cc(Cl)c(Cl)c2C2C=CCC12 (stereo not given) | active: 23.9 µM
COc1cc(/C=C2\C(=O)N(c3cccc(C(=O)O)c3)N=C2C)ccc1OCc1ccccc1 | inconclusive: 60.1 µM [inhibitor, partial curve, poor fit]
O=C(O)c1ccccc1NS(=O)(=O)c1ccc(NN=Cc2ccccc2F)c([N+](=O)[O-])c1 | active: 60.1 µM
COc1ccccc1OCCOc1ccc(/C=C2\C(=N)N3N=C(S(C)(=O)=O)SC3=NC2=O)cc1 | inconclusive: 95.3 µM [inhibitor, single point]
O=C(N/N=C/c1cc(Cl)c(O)c(Cl)c1)c1cc2c(ccc3ccccc32)o1 | active: 42.6 µM
COc1cc(/C=C(\C#N)c2nc3ccccc3s2)cc([N+](=O)[O-])c1O | active: 75.7 µM
Cc1ccc(/C=C2/SC(=S)N(c3ccc(S(=O)(=O)Nc4nccs4)cc3)C2=O)cc1 | active: 75.7 µM
O=c1cc2oc3cc(O)c(O)cc3c(-c3ccccc3[N+](=O)[O-])c-2cc1O | active: 2.13 µM
O=C(O)c1ccc(COc2ccc3ccccc3c2/C=C2/NC(=O)N(Cc3ccc(F)cc3)C2=O)cc1 | inconclusive: 84.9 µM [inhibitor, single point]
Cc1cc(C)c(Nc2cc(S(=O)(=O)O)c(N)c3c2C(=O)c2ccccc2C3=O)c(C)c1 | inconclusive: 84.9 µM [inhibitor, single point]
COc1ccc(NC(=O)CN(C)C(=O)c2cc(-c3ccco3)nc3ccccc23)cc1 | active: 42.6 µM
Cc1ccc(S(=O)(=O)c2nc(-c3ccco3)oc2SC(C)C)cc1 | inconclusive: 95.3 µM [inhibitor, single point]
